Assay results as given in the supplement of paper PMC8728848.
This is one part of the list.

Legend:
Assay in all cases: glycan array binding signal (z-score within array); higher = stronger binding
Conditions in all cases: glycan notation: IUPAC condensed, linker removed
[1] = biological target: Man(a1-2)Man(a1-6)[Man(a1-3)]Man(a1-6)[Man(a1-2)Man(a1-2)Man(a1-3)]Man
In short: (§1)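 Glycan array data came from 3228 arrays in the Consortium for Functional Glycomics database, and only arrays with an available protein sequence were kept. Glycan names were put into IUPAC-condensed notation, and columns mapping to the same glycan were averaged. The binding signal is a within-array Z-score, averaged across arrays of one protein sequence run at different concentrations or buffers and across linkers. A negative Z-score can be read as non-binding.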

[2] = biological target: Man(a1-2)Man(a1-6)[Man(a1-3)]Man(a1-6)[Man(a1-2)Man(a1-2)Man(a1-3)]Man(b1-4)GlcNAc(b1-4)GlcNAc
In short: as §1

Man(a1-3)[Man(a1-6)]Man = biological target: Man(a1-3)[Man(a1-6)]Man
In short: as §1

[3] = biological target: Man(a1-3)[Man(a1-6)]Man(a1-6)[Man(a1-2)Man(a1-3)]Man(b1-4)GlcNAc(b1-4)GlcNAc
In short: as §1

[4] = biological target: Man(a1-3)[Man(a1-6)]Man(a1-6)[Man(a1-3)]Man
In short: as §1

[5] = biological target: Man(a1-3)[Man(a1-6)]Man(a1-6)[Man(a1-3)]Man(b1-4)GlcNAc(b1-4)GlcNAc
In short: as §1

[6] = biological target: Man(a1-3)[Man(a1-6)]Man(b1-4)GlcNAc(b1-4)GlcNAc
In short: as §1

Man(a1-6)Man = biological target: Man(a1-6)Man
In short: as §1

Man(b1-4)GlcNAc = biological target: Man(b1-4)GlcNAc
In short: as §1

Neu5Ac(a2-3)Gal = biological target: Neu5Ac(a2-3)Gal
In short: as §1

[7] = biological target: Neu5Ac(a2-3)Gal(b1-3)GalNAc
In short: as §1

[8] = biological target: Neu5Ac(a2-3)Gal(b1-3)GalNAc(b1-3)Gal(a1-4)Gal(b1-4)Glc
In short: as §1

[9] = biological target: Neu5Ac(a2-3)Gal(b1-3)GalNAc(b1-3)Gal(b1-4)GlcNAc
In short: as §1

[10] = biological target: Neu5Ac(a2-3)Gal(b1-3)GalNAc(b1-4)[Neu5Ac(a2-3)]Gal(b1-4)Glc
In short: as §1

[11] = biological target: Neu5Ac(a2-3)Gal(b1-3)GalNAc6S
In short: as §1

[12] = biological target: Neu5Ac(a2-3)Gal(b1-3)GlcNAc
In short: as §1

[13] = biological target: Neu5Ac(a2-3)Gal(b1-3)GlcNAc(b1-3)Gal(b1-3)GlcNAc
In short: as §1

[14] = biological target: Neu5Ac(a2-3)Gal(b1-3)GlcNAc6S
In short: as §1

[15] = biological target: Neu5Ac(a2-3)Gal(b1-3)[Fuc(a1-4)]GlcNAc
In short: as §1

[16] = biological target: Neu5Ac(a2-3)Gal(b1-3)[Fuc(a1-4)]GlcNAc(b1-3)Gal(b1-3)[Fuc(a1-4)]GlcNAc
In short: as §1

[17] = biological target: Neu5Ac(a2-3)Gal(b1-3)[Fuc(a1-4)]GlcNAc(b1-3)Gal(b1-4)[Fuc(a1-3)]GlcNAc
In short: as §1

[18] = biological target: Neu5Ac(a2-3)Gal(b1-3)[Neu5Ac(a2-3)Gal(b1-4)]GlcNAc
In short: as §1

[19] = biological target: Neu5Ac(a2-3)Gal(b1-3)[Neu5Ac(a2-6)]GalNAc
In short: as §1

Neu5Ac(a2-3)Gal(b1-4)Glc = biological target: Neu5Ac(a2-3)Gal(b1-4)Glc
In short: as §1

[20] = biological target: Neu5Ac(a2-3)Gal(b1-4)GlcNAc
In short: as §1

[21] = biological target: Neu5Ac(a2-3)Gal(b1-4)GlcNAc(b1-2)Man(a1-3)[GlcNAc(b1-2)Man(b1-4)GlcNAc(b1-2)Man(a1-6)]Man(b1-4)GlcNAc(b1-4)GlcNAc
In short: as §1

[22] = biological target: Neu5Ac(a2-3)Gal(b1-4)GlcNAc(b1-2)Man(a1-3)[Neu5Ac(a2-6)Gal(b1-4)GlcNAc(b1-2)Man(a1-6)]Man(b1-4)GlcNAc(b1-4)GlcNAc
In short: as §1

[23] = biological target: Neu5Ac(a2-3)Gal(b1-4)GlcNAc(b1-3)Gal(b1-3)GlcNAc
In short: as §1

[24] = biological target: Neu5Ac(a2-3)Gal(b1-4)GlcNAc(b1-3)Gal(b1-4)GlcNAc
In short: as §1

[25] = biological target: Neu5Ac(a2-3)Gal(b1-4)GlcNAc(b1-3)Gal(b1-4)GlcNAc(b1-3)Gal(b1-4)GlcNAc
In short: as §1

[26] = biological target: Neu5Ac(a2-3)Gal(b1-4)GlcNAc(b1-3)Gal(b1-4)[Fuc(a1-3)]GlcNAc
In short: as §1

[27] = biological target: Neu5Ac(a2-3)Gal(b1-4)GlcNAc(b1-3)GalNAc
In short: as §1

[28] = biological target: Neu5Ac(a2-3)Gal(b1-4)GlcNAc(b1-6)[Gal(b1-3)]GalNAc
In short: as §1

[29] = biological target: Neu5Ac(a2-3)Gal(b1-4)GlcNAc(b1-6)[Neu5Ac(a2-3)Gal(b1-3)]GalNAc
In short: as §1

[30] = biological target: Neu5Ac(a2-3)Gal(b1-4)GlcNAc6S
In short: as §1

[31] = biological target: Neu5Ac(a2-3)Gal(b1-4)[Fuc(a1-3)]GlcNAc
In short: as §1

[32] = biological target: Neu5Ac(a2-3)Gal(b1-4)[Fuc(a1-3)]GlcNAc(b1-3)Gal
In short: as §1

[33] = biological target: Neu5Ac(a2-3)Gal(b1-4)[Fuc(a1-3)]GlcNAc(b1-3)Gal(b1-4)GlcNAc
In short: as §1

B1: HHL-2 (Homo sapiens), P07307 (protein)
chain: MAKDFQDIQQLSSEENDHPFHQGEGPGTRRLNPRRGNPFLKGPPPAQPLAQRLCSMVCFSLLALSFNILLLVVICVTGSQSEGHRGAQLQAELRSLKEAFSNFSSSTLTEVQAISTHGGSVGDKITSLGAKLEKQQQDLKADHDALLFHLKHFPVDLRFVACQMELLHSNGSQRTCCPVNWVEHQGSCYWFSHSGKAWAEAEKYCQLENAHLVVINSWEEQKFIVQHTNPFNTWIGLTDSDGSWKWVDGTDYRHNYKNWAVTQPDNWHGHELGGSEDCVEVQPDGRWNDDFCLQVYRWVCEKRRNATGEVA
For B1, the “glycan array binding signal (z-score)” value [1] was 1.48, the “glycan array binding signal (z-score)” value [2] was -0.894 and the “glycan array binding signal (z-score)” value (Man(a1-3)[Man(a1-6)]Man) was 0.051. The “glycan array binding signal (z-score)” value [3] was 0.822, the “glycan array binding signal (z-score)” value [4] was -0.308 and the “glycan array binding signal (z-score)” value [5] was 0.756. The “glycan array binding signal (z-score)” value [6] was -0.176, the “glycan array binding signal (z-score)” value (Man(a1-6)Man) was -0.681 and the “glycan array binding signal (z-score)” value (Man(b1-4)GlcNAc) was -0.772. For the same binder, the “glycan array binding signal (z-score)” value (Neu5Ac(a2-3)Gal) was 0.507, the “glycan array binding signal (z-score)” value [7] was -0.823 and the “glycan array binding signal (z-score)” value [8] was 0.569. The “glycan array binding signal (z-score)” value [9] was -0.403, the “glycan array binding signal (z-score)” value [10] was 0.348 and the “glycan array binding signal (z-score)” value [11] was 0.143. For the same binder, the “glycan array binding signal (z-score)” value [12] was -0.09, the “glycan array binding signal (z-score)” value [13] was 0.812 and the “glycan array binding signal (z-score)” value [14] was -0.064. The “glycan array binding signal (z-score)” value [15] was -0.585, the “glycan array binding signal (z-score)” value [16] was 0.826 and the “glycan array binding signal (z-score)” value [17] was -0.645. For the same binder, the “glycan array binding signal (z-score)” value [18] was -0.699, the “glycan array binding signal (z-score)” value [19] was 2.71 and the “glycan array binding signal (z-score)” value (Neu5Ac(a2-3)Gal(b1-4)Glc) was -0.114. The “glycan array binding signal (z-score)” value [20] was -0.209, the “glycan array binding signal (z-score)” value [21] was 2.39 and the “glycan array binding signal (z-score)” value [22] was -0.8. For the same binder, the “glycan array binding signal (z-score)” value [23] was 3.56, the “glycan array binding signal (z-score)” value [24] was -0.514 and the “glycan array binding signal (z-score)” value [25] was 1.5. For the same binder, the “glycan array binding signal (z-score)” value [26] was 1.82, the “glycan array binding signal (z-score)” value [27] was -0.53 and the “glycan array binding signal (z-score)” value [28] was -0.954. For the same binder, the “glycan array binding signal (z-score)” value [29] was 2.27, the “glycan array binding signal (z-score)” value [30] was -0.075 and the “glycan array binding signal (z-score)” value [31] was -0.312. The “glycan array binding signal (z-score)” value [32] was 1.89 and the “glycan array binding signal (z-score)” value [33] was 0.901.
